# PubChem BioAssay AID1224830 – NIAID, 2016
# Purpose: 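Host factors that control LPS-induced TNF expression in human macrophages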 (primary screen)
# Cells: human THP-1 monocytic leukaemia cells, TNF dual-luciferase reporter clone, PMA-differentiated to macrophage-like cells
# Reagents: siRNA pool against human genes, 50 nM
# Duration: LPS for 4 h, given about 3 days after siRNA transfection
# Challenge: bacterial LPS (TLR4 ligand), 10 ng/ml
# Measurement: 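Ratio of firefly to renilla light, scaled to the plate median and expressed as a robust z-score per replicate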
# Reading the numbers: TNF reporter robust z-score: higher = stronger TNF reporter response to LPS
# Active means: 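Each well counts as active if its z-score is over 2.8 or under -1.5; controls are left without a call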
# The whole screen tested about 18,000 reagents; shown is a random part of them. In the full data, about 2,900 (16%) were called active. 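Calls are made per well; low scores hint the gene aids the LPS response, high scores that it dampens it.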 Repeated entries: four replicate wells of each siRNA pool. Reagent sequences are not shown.
gene knocked down,PubChem SID,TNF reporter robust z-score,Outcome
PAFAH1B1,SID315450408,0.19,inactive
PAFAH1B1,SID315450408,1.25,inactive
PAFAH1B1,SID315450408,1.31,inactive
PAFAH1B1,SID315450408,2.02,inactive
GDF3,SID315453393,0.06,inactive
GDF3,SID315453393,0.77,inactive
GDF3,SID315453393,-0.11,inactive
GDF3,SID315453393,4,active
HSPA14,SID315456536,-0.79,inactive
HSPA14,SID315456536,-0.2,inactive
HSPA14,SID315456536,-0.68,inactive
HSPA14,SID315456536,-0.32,inactive
PSEN1,SID315450871,5.65,active
PSEN1,SID315450871,1.55,inactive
PSEN1,SID315450871,0.6,inactive
PSEN1,SID315450871,1.94,inactive
TJAP1,SID315461088,0.07,inactive
TJAP1,SID315461088,1.56,inactive
TJAP1,SID315461088,0.7,inactive
TJAP1,SID315461088,0.98,inactive
ZNF404,SID315464140,0.41,inactive
ZNF404,SID315464140,-0.43,inactive
ZNF404,SID315464140,0.13,inactive
ZNF404,SID315464140,0.58,inactive
OR2Y1,SID315461956,-1.01,inactive
OR2Y1,SID315461956,-0.41,inactive
OR2Y1,SID315461956,-0.67,inactive
OR2Y1,SID315461956,-1.08,inactive
DPYS,SID315448366,-0.82,inactive
DPYS,SID315448366,-0.68,inactive
DPYS,SID315448366,-1.12,inactive
DPYS,SID315448366,-0.19,inactive
ATAD3A,SID315457499,1.75,inactive
ATAD3A,SID315457499,3.89,active
ATAD3A,SID315457499,1.55,inactive
ATAD3A,SID315457499,3.93,active
TMOD4,SID315456167,4.29,active
TMOD4,SID315456167,2.01,inactive
TMOD4,SID315456167,1.67,inactive
TMOD4,SID315456167,2.71,inactive
IL31RA,SID315461943,1.04,inactive
IL31RA,SID315461943,-0.97,inactive
IL31RA,SID315461943,0.7,inactive
DDB2,SID315448266,1.09,inactive
DDB2,SID315448266,1.16,inactive
DDB2,SID315448266,0.81,inactive
DDB2,SID315448266,1.92,inactive
SCRN2,SID315460832,0.29,inactive
SCRN2,SID315460832,-0.17,inactive
SCRN2,SID315460832,0.08,inactive
SCRN2,SID315460832,1.94,inactive
FBLIM1,SID315457141,0.63,inactive
FBLIM1,SID315457141,2.67,inactive
FBLIM1,SID315457141,1.2,inactive
FBLIM1,SID315457141,1.56,inactive
POLQ,SID315454313,0.2,inactive
POLQ,SID315454313,-0.26,inactive
POLQ,SID315454313,-0.84,inactive
POLQ,SID315454313,0.78,inactive
MATN3,SID315449892,-1.74,active
MATN3,SID315449892,-0.97,inactive
MATN3,SID315449892,-0.96,inactive
MATN3,SID315449892,-1.12,inactive
TCEAL7,SID315458124,0.6,inactive
TCEAL7,SID315458124,0.52,inactive
TCEAL7,SID315458124,-0.23,inactive
TCEAL7,SID315458124,-1.3,inactive
TNNI2,SID315451928,-0.84,inactive
TNNI2,SID315451928,-1.02,inactive
TNNI2,SID315451928,-0.63,inactive
TNNI2,SID315451928,-0.21,inactive
RBM17,SID315460628,0.64,inactive
RBM17,SID315460628,1.28,inactive
RBM17,SID315460628,0.75,inactive
RBM17,SID315460628,0.42,inactive
